Data source: PubChem BioAssay AID686937 (Drosophila RNAi Screening Center, 2013)

Screen: 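Genes whose loss weakens secretory pathway function in fly cells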 (primary screen)
Cells: Drosophila S2 cells expressing secreted horseradish peroxidase
Knock-down reagent: long dsRNA against Drosophila genes
Timing: about 5.5 days (5 days dsRNA, then 12 h reporter induction)
Treatment: reporter expression induced after 5 days of dsRNA, read 12 h later; inducer not stated
Detection: 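After 5 days of dsRNA and 12 h of reporter induction, medium peroxidase read by chemiluminescence and scored as per-plate z-score; higher values mean more reporter released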
Reading the numbers: z-score: higher = more reporter secreted into medium
The deposit covers about 23,000 reagents; shown is a random part of those with a known target gene and a result. 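Reduced-secretion tags in replicate 1 do not always agree with the z-scores; no criterion for assigning the tags was given.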 A plus sign joins genes that one reagent is predicted to hit. Further read-outs or replicates are left out here. Reagent sequences are not shown. Not stated in the record: the amount of reagent.

| target gene | DRSC id | z-score, replicate 1 | z-score, replicate 2 |
| --- | --- | --- | --- |
| CG10175 (GeneID 42773) | DRSC13628 | 0.6 | 0.65 |
| CG10175 (GeneID 42773) | DRSC14200 | 0.5 | 0.34 |
| CG10175 (GeneID 42773) | DRSC21981 | 0.76 | 0.38 |
| D1 (GeneID 41095) | DRSC16638 | 0.6 | 0.52 |
| COX3 (retired record) (GeneID 192471) | DRSC21279 | 0.43 | 0.43 |
| Pp4-19C (GeneID 45031) | DRSC20559 | -0.57 | 0.11 |
| Pp4-19C (GeneID 45031) | DRSC21251 | -0.78 | -0.04 |
| CG3777 (GeneID 30979) | DRSC18489 | -1.66 | -0.81 |
| PpY-55A (GeneID 48532) | DRSC07513 | 0.28 | 0.3 |
| CG14100 (GeneID 40132) | DRSC10101 | 0.09 | 0.27 |
| Rpn7 (GeneID 42641) | DRSC16841 | -6.72 | -4.29 |
| asRNA:CR43259 + CG31089 | DRSC15934 | 0.28 | 0.3 |
| CG8578 (GeneID 32540) | DRSC20114 | 0.1 | 0.19 |
| Uhg2 + snoRNA:Me18S-G1620 + snoRNA:U14:30Ea | DRSC01100 | 0.12 | 0.39 |
| TwdlQ (GeneID 43214) | DRSC14745 | 0.29 | -0.34 |
| akirin (GeneID 38821) | DRSC11000 | -0.55 | -0.66 |
| mars (GeneID 36498) | DRSC06656 | -0.12 | 0.11 |
| hebe (GeneID 36011) | DRSC05192 | 0.91 | – |
| hebe (GeneID 36011) | DRSC06605 | 0.42 | 0.49 |
| hebe (GeneID 36011) | DRSC21614 | -0.12 | 0.02 |
| cwo (GeneID 44669) | DRSC17072 | -1.75 | -0.97 |
| CG8861 (GeneID 41109) | DRSC12731 | -0.41 | -0.06 |
| CG8861 (GeneID 41109) | DRSC16449 | 0.34 | 0.28 |
| CG43062 (GeneID 12797888) | DRSC12866 | 0.37 | 0.23 |
| CG14017 (GeneID 33787) | DRSC02348 | -0.29 | -0.03 |
| CG2617 (GeneID 35331) | DRSC02712 | 0.35 | 0.47 |
| CG1113 (GeneID 40629) | DRSC12163 | 0.32 | 0.08 |
| yellow-b (GeneID 35005) | DRSC03639 | 0.24 | 0.25 |
| CG15043 (GeneID 32835) | DRSC19619 | -0.05 | -0.5 |
| NC2alpha (GeneID 37471) | DRSC04059 | 0.46 | 0.29 |
| Ppat-Dpck (GeneID 38647) | DRSC09744 | 0.2 | 0.22 |
| CtsL3 (GeneID 40741) | DRSC12171 | 0.34 | 0.35 |
| Ubc7 (GeneID 44054) | DRSC20299 | -0.23 | 0.21 |
| CG33127 (GeneID 318893) | DRSC00011 | 0.33 | 0.49 |
| KaiR1D (GeneID 42473) | DRSC15516 | 0.25 | 0.23 |
| CG31606 (GeneID 318842) | DRSC01012 | 0.23 | 0.11 |
| Obp58d (GeneID 37609) | DRSC04162 | -0.04 | 0.05 |
| CG5888 (GeneID 34980) | DRSC01929 | -0.21 | 0.13 |
| vrs (GeneID 41537) | DRSC15832 | 0.25 | 0.19 |
| Drep3 (GeneID 36292) | DRSC06312 | 0.31 | 0.32 |
| Drep3 (GeneID 36292) | DRSC07529 | 0.74 | 0.58 |
| Drep3 (GeneID 36292) | DRSC22344 | 0.31 | -0.23 |
| CG33108 (GeneID 326257) | DRSC21613 | -0.09 | -0.33 |
| PSMG1 (GeneID 40719) | DRSC12297 | 0.36 | -0.06 |
| SWIP (GeneID 32594) | DRSC19540 | 0.24 | 0.42 |
| CG15096 (GeneID 37170) | DRSC06525 | 0.02 | 0.53 |
| SIFaR (GeneID 42530) | DRSC13467 | -0.08 | 0.29 |
| SIFaR (GeneID 42530) | DRSC14266 | 0.38 | 0.36 |
| nrv1 (GeneID 33952) | DRSC03382 | 0.64 | 0.4 |
| qtc (GeneID 33739) | DRSC02364 | -0.01 | 0.22 |
| qtc (GeneID 33739) | DRSC02365 | -7.48 | 0.07 |
| Or67c (GeneID 39189) | DRSC11242 | 0.57 | 0.49 |
| CG12994 (GeneID 50350) | DRSC19192 | 0.36 | -0.48 |
| CG12994 (GeneID 50350) | DRSC19514 | -0.45 | -0.45 |
| HipHop (GeneID 40047) | DRSC10734 | 0.23 | 0.39 |
| CG40485 (GeneID 3355165) | DRSC20624 | -0.42 | 0.26 |
| CG33331 + CG33332 | DRSC22928 | -0.21 | -0.24 |
| Tbcd (GeneID 33389) | DRSC00273 | 0.44 | 0.5 |
| CG15353 (GeneID 50191) | DRSC00383 | 0.41 | 0.48 |
| GlyT (GeneID 37772) | DRSC04512 | 0.57 | 0.32 |
| fs(1)K10 (GeneID 47781) | DRSC18775 | 0.28 | -0.12 |
| CG42674 (GeneID 40205) | DRSC10066 | -1.58 | -1.18 |
| CG42674 (GeneID 40205) | DRSC10067 | 0.45 | 0.52 |
| CG42674 (GeneID 40205) | DRSC10811 | 0.34 | 0.33 |
| Arf6 (GeneID 36699) | DRSC05921 | 0.15 | 0.1 |
| Fur1 (GeneID 47220) | DRSC13707 | -0.23 | 0.16 |
| Fur1 (GeneID 47220) | DRSC16676 | -0.22 | 0 |
| CG42813 (GeneID 43276) | DRSC15939 | 0.36 | 0.71 |
| mRpL27 (GeneID 318825) | DRSC22568 | -0.04 | -0.19 |
| Gr64f (GeneID 117477) | DRSC08447 | 0.32 | 0.13 |
| CG4467 (GeneID 42747) | DRSC15585 | 0.4 | 0.34 |
| CtsF (GeneID 40628) | DRSC12056 | 0.49 | 0.47 |
| CtsF (GeneID 40628) | DRSC12195 | 0.56 | 0.37 |
| CtsF (GeneID 40628) | DRSC12196 | 0.49 | 0.48 |
| dgt1 (GeneID 43529) | DRSC15301 | -0.07 | -0.58 |
| Elp2 (GeneID 36123) | DRSC06095 | 0.29 | 0.46 |
| CG12521 (GeneID 50289) | DRSC09893 | 0.22 | 0.04 |
| Mal-A8 (GeneID 35830) | DRSC07234 | 0.29 | 0.36 |
| CG9782 (GeneID 32632) | DRSC19145 | 0.34 | -0.2 |
| CG9782 (GeneID 32632) | DRSC20209 | 0.14 | 0.56 |
| CG13516 (GeneID 3885599) | DRSC04159 | 0.1 | 0.3 |
| Strn-Mlck (GeneID 36753) | DRSC05032 | 0.25 | -0.02 |
| Strn-Mlck (GeneID 36753) | DRSC05598 | 0.27 | 0.42 |
| Strn-Mlck (GeneID 36753) | DRSC06571 | 0.59 | 0.2 |
| Strn-Mlck (GeneID 36753) | DRSC07471 | 0.28 | 0.58 |
